# Values from PubChem BioAssay AID1159578 (Peter MacCallum Cancer Centre, 2015)
# Screen: 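Genome-wide hunt for genes controlling movement of lymphatic endothelial cells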 (primary screen)
# Cell system: human lymphatic endothelial cells
# Reagents: siRNA pool against human genes, 40 nM
# Timing: 48 h after transfection
# Measured: 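Cells stained with dye and imaged after a scratch; covered wound area and nuclei counted, duplicates averaged, migration set against mock wells and turned into a robust z-score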
# Reading the numbers: migration robust z-score: higher = faster migration into the scratch; nuclei per well: higher = more cells in the well
# Hit rule: 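Migration changed when robust z exceeds 2 or falls below -2 and mean nuclei number is at least 3300; otherwise not called changed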
# Meaning of the calls: active = migration changed; inactive = no migration change, or too few cells
# Here is an unselected part of about 18,000 reagents. About 1,030 of them (5.7%) count as active. 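Inactive calls also include pools with fewer than 3300 nuclei, whose migration was not assessed.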 Raw values vary from plate to plate and are shown uncorrected. Further read-outs or replicates are left out here. Reagent sequences are not shown.
target gene,migration robust z-score,"nuclei per well, duplicate mean",activity call
RARB,-1.87,4596,inactive
SELENOO,-0.38,6088,inactive
CYP1A1,-2.67,5638,active
LGALS13,-0.2,5554,inactive
TIMM44,-1,4860,inactive
ATF7IP,-0.61,5142,inactive
SORBS2,-0.4,6225,inactive
ALDH3A2,0.55,5712,inactive
ANGPTL5,1.5,5131,inactive
CEP152,0.56,6326,inactive
RELL1,0.42,5406,inactive
OR8G1,-0.68,4058,inactive
SLC41A2,-1.32,5450,inactive
NOXA1,-1.07,3927,inactive
LNPEP,0.88,4888,inactive
CIRBP,-1.38,5003,inactive
LIME1,-0.11,5791,inactive
PTPN7,-0.6,6481,inactive
EIF2B2,0.68,6385,inactive
CKAP2,0.26,5304,inactive
GID4,1.15,6692,inactive
LIX1,0.15,5455,inactive
HMX2,1.04,5954,inactive
TRIM15,1.32,5976,inactive
TOMM40L,-0.65,4670,inactive
NDUFS6,-0.52,5908,inactive
MCM6,0.21,5771,inactive
PRR27,0.58,5724,inactive
G3BP2,0.86,6055,inactive
ARL10,-0.08,5694,inactive
GALNT18,0.96,5346,inactive
CYP24A1,-0.86,4222,inactive
SLC47A1,-0.73,5841,inactive

The list goes on; the last 8 above are carried over.
target gene,migration robust z-score,"nuclei per well, duplicate mean",activity call
NDUFS6,-0.52,5908,inactive
MCM6,0.21,5771,inactive
PRR27,0.58,5724,inactive
G3BP2,0.86,6055,inactive
ARL10,-0.08,5694,inactive
GALNT18,0.96,5346,inactive
CYP24A1,-0.86,4222,inactive
SLC47A1,-0.73,5841,inactive
LARGE1,-1.17,5566,inactive
PANK3,-1.35,4003,inactive
TP53BP1,0.94,6134,inactive
HSPA1A,-0.31,4962,inactive
UBE2F,-0.93,2891,inactive
ACACA,-0.42,3454,inactive
CHRNG,0.36,5866,inactive
SOX5,0.71,4866,inactive
PPIL2,-1.17,5212,inactive
TRIM21,1.06,7045,inactive
MORC3,1.36,5855,inactive
ZYX,-1.12,4735,inactive
MIB2,1.66,5508,inactive
F2R,1.17,5666,inactive
ARFRP1,-0.83,5794,inactive
SVBP,-0.76,6570,inactive
PBOV1,1.57,5746,inactive
IFTAP,0.84,5855,inactive
DHX34,1.56,5794,inactive
NOMO2,1.55,5628,inactive
NID1,1.68,6898,inactive
PIP5KL1,-3.5,3122,inactive
FUT5,-0.57,5758,inactive
LOC90462 (retired record),1.65,6116,inactive
